From paper PMC9098866, “Signal transduction in light-oxygen-voltage receptors lacking the active-site glutamine” (Nature Communications, 2022)
The exact form of at least one protein or probe is not confirmed. The comparison behind a weaker result is the experiment's own reference, which may not be listed here. At least one verdict was read from the data and is not stated in words by the source. Tags and fusion partners may be left off the protein sequences shown.

Target: T1, BjFixJ (UniProt P23221)
T1 sequence (looked up, limits assumed): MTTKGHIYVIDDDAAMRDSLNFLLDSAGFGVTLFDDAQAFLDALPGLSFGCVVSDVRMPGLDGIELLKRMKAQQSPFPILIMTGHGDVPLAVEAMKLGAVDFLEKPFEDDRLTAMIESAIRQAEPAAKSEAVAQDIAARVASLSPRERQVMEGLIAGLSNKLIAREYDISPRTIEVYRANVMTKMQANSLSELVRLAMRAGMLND
Assay: fluorescence anisotropy
Details: 1 mM ATP, NmPAL: 12 mM HEPES/HCl pH 7.7, 135 mM KCl, 10 mM NaCl, 1 mM MgCl2, 10% glycerol, 100 ug/mL BSA, 4 nM RNA, temperature not stated, BjFixJ: 10 mM HEPES/HCl pH 7.6, recombinant protein, protein details: His6-SUMO removed by Senp2, label: 5'-TAMRA on strand 1

Measured: binding result

GAGCGATATCTTAAGGGGGGTGCCTTACGTAGAACCC (double strand) [BjFixK2 operator dsDNA]
binds: YF1 Q123H, higher anisotropy than with YF1, no light response | YF1 Q123L in darkness | YF1 Q123P, higher anisotropy than with YF1, no light response | YF1 in darkness (phosphorylated BjFixJ)
binds more weakly: YF1 Q123L after blue light, decay about half the YF1 amplitude | YF1 after 30 s blue light (dephosphorylation)
